Measured values taken from PubChem BioAssay AID662 (National Center for Advancing Translational Sciences (NCATS), 2007).
The other results are listed elsewhere or left out. These are further read-outs of the screen, such as a control signal, another cell line or another target. No call is given for them. Compounds called inactive in the main read-out are mostly missing here. Words in brackets tell the shape of the fitted curve; partial curves, single points and poor fits give uncertain potencies.

test: Cell signaling CRE-BLA (Fsk stim); conditions: CHO CRE-bla reporter (cAMP response element driving beta-lactamase), forskolin EC10, beta-lactamase ratio; measured here: 460 nm blue channel
Outline: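 The 460nm/530nm emission ratio after CCF4 loading defined %Activity, from which AC50 values were obtained. CRE-bla CHO cells received compound dilution series together with an EC10 level of NKH 477 for 3 hours at 37 degrees Celsius.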

Compound | AC50
CCOC(=O)N1CCN(CCC(=O)Nc2ccc(OC(F)(F)F)cc2)CC1 | 0.0316 µM [falling, full curve, poor fit]
CCCCS(=O)CC(COc1ccc(Cl)cc1)OC(=O)c1ccccc1 (configuration not stated) | 0.501 µM [rising, partial curve, poor fit]
Cc1noc(/C=C/N(C)C)c1S(=O)(=O)N1CCc2ccccc21 | 25.1 µM [falling, single point]
COC(=O)c1sc(=S)sc1C(=O)OC | 12.6 µM [falling, single point]
CCC(=O)Nc1nn(C)c2nc3c(C)cccc3cc12 | 12.6 µM [rising, partial curve]
C[C@@](Cc1ccccc1)(NC(=O)CN)c1ccccc1 | 10 µM [falling, partial curve, poor fit]
CC(=O)N1CCc2cc(S(=O)(=O)NC(CC(C)C)C(=O)N3CCn4c3nc3ccccc34)ccc21 (configuration not stated) | 2 µM [rising, full curve, poor fit]
CC1=C(C(=O)OC2CCCCC2)C(c2ccco2)C2=C(CC(C)(C)CC2=O)N1 (configuration not stated) | 12.6 µM [rising, single point]
COc1ccccc1-n1c(SCC(=O)N(C)C2CCS(=O)(=O)C2)nc2ccccc2c1=O (configuration not stated) | 0.0398 µM [falling, full curve]
O=C(CSc1ncn(-c2ccccc2)n1)Nc1nc2ccccc2s1 | 25.1 µM [falling, single point]
O=C(Nc1cc(N2CCOCC2)ncn1)NC1(C(F)(F)F)Oc2ccc(Cl)cc2O1 (configuration not stated) | 12.6 µM [falling, partial curve]
CCOC(=O)c1c(C)n(C)c2ccc(OC(=O)c3ccoc3)cc12 | 2.51 µM [rising, single point]
COc1ccc2[nH]cc(CCNc3ncnc4ccc(-c5cccnc5)cc34)c2c1 | 2.51 µM [rising, partial curve]
CC1CCCCC1NS(=O)(=O)c1ccc(S(=O)(=O)NCc2ccncc2)cc1 (configuration not stated) | 0.00316 µM [falling, full curve, poor fit]
Cc1cc(N2CCOCC2)nc2ccc(NC(=O)CCC(=O)N3CCCC(C)C3)cc12 (configuration not stated) | 25.1 µM [rising, single point]
Cc1cc(C)cc(N(CC(=O)N2CCC(C)CC2)S(C)(=O)=O)c1 | 0.501 µM [falling, single point]
O=C(Cc1ccc2cccnc2c1)c1ccc(O)cc1O | 3.98 µM [falling, partial curve]
CN1CCN(c2ncnc3ccc(-c4ccccc4C#N)cc23)CC1 | 6.31 µM [rising, partial curve]
Cc1nc2c3cnn(-c4ccccc4)c3ncn2n1 | 12.6 µM [rising, single point]
CCN(C(=O)CSc1nc2nc(C)cc(C)n2n1)c1cccc(C)c1 | 10 µM [rising, partial curve]
O=C(c1ccccc1)C(Sc1ncn[nH]1)c1ccccc1 (configuration not stated) | 2.51 µM [falling, partial curve]
COCCn1c(SCC(=O)Nc2sc(C)c(C)c2C#N)nnc1-c1ccc(OC)cc1 | 12.6 µM [rising, single point]
Cc1ccc(C(=O)Nc2ccccc2C(=O)NCc2ccco2)cc1S(=O)(=O)N1CCCCC1 | 12.6 µM [rising, partial curve]

Compound | AC50
CCOC(=O)c1ccc(NC(=O)CNC(=O)C2CCCCC2)cc1 | 0.501 µM [falling, partial curve]
OCCNc1nc2ccc(Cl)cc2[nH]1 | 25.1 µM [rising, single point]
COc1ccc(-c2nc3cnc(N4CCNCC4)nc3n(Cc3cccs3)c2=O)cc1 | 1.26 µM [rising, full curve]
O=C(Cc1cccs1)N(c1ccccc1)C1C=CS(=O)(=O)C1 (configuration not stated) | 3.16 µM [falling, partial curve]
COC(=O)C(C)N(C#N)c1nc(C)nc(C)n1 (configuration not stated) | 5.01 µM [rising, partial curve]
c1ccc(-c2nn3c(-c4ccco4)nnc3s2)nc1 | 20 µM [rising, single point]
CC1(C)CC(=O)C2=C(C1)NC(SCC(=O)Nc1ccccc1)=C(C#N)C2c1ccco1 (configuration not stated) | 10 µM [rising, partial curve]
O=C(c1cc2nc(-c3ccco3)cc(C(F)(F)F)n2n1)N1CCN(c2ccc(F)cc2)CC1 | 10 µM [rising, partial curve]
CCOC(=O)C1CCCN(C(=O)c2ccco2)C1 (configuration not stated) | 0.398 µM [rising, partial curve]
COc1ccc(-c2nc3cnc(OC)nc3n(-c3ccc(OC)cc3)c2=O)cc1 | 25.1 µM [rising, partial curve]
COc1cc(C(c2sc3nc(C)nn3c2O)N2CCN(c3ccccc3)CC2)cc(OC)c1OC (configuration not stated) | 1.58 µM [rising, full curve]
CCOC(=O)c1cnn(-c2ncnc3sc(CC)cc23)c1N | 2.51 µM [rising, full curve, poor fit]
Cc1cc(NC(=O)NC2(C(F)(F)F)Oc3ccc(Cl)cc3O2)no1 (configuration not stated) | 12.6 µM [falling, single point]
COC(=O)c1c(NC(=O)CC2SCC(C(=O)OC)NC2=O)sc2c1CCCC2 (configuration not stated) | 15.8 µM [rising, single point]
CCOC(=O)Cn1c(C)c(C#N)c2ccccc21 | 0.501 µM [falling, partial curve, poor fit]
COC(=O)c1ccc(CSc2ccc3nnc(-c4ccc(OC)c(OC)c4)n3n2)o1 | 2 µM [rising, full curve]
Cc1csc(=O)n1CC(=O)OCc1cccc2ccccc12 | 3.98 µM [rising, partial curve]
CCCC(=O)Nc1cccc(NC(=O)c2ccc3c(c2)OCCO3)c1 | 3.16 µM [falling, partial curve, poor fit]
Nc1nc2ccc([N+](=O)[O-])cc2s1 | 3.16 µM [falling, full curve, poor fit]
Cc1cc(C(=O)N[C@@H](c2ccccc2)[C@]2(C)C[C@H]2[C@@H](C)C(=O)Nc2ccc3ccccc3c2)no1 | 3.16 µM [falling, full curve, poor fit]
C#CCNc1nc(C(C)C)nc2c1nnn2Cc1ccccc1F | 12.6 µM [rising, partial curve]
Cc1cc(C(=O)OCC(=O)N(C)C2CCS(=O)(=O)C2)c(C)n1-c1ccccc1 (configuration not stated) | 15.8 µM [rising, partial curve]
CCCCCOc1ccc(NS(C)(=O)=O)cc1 | 31.6 µM [falling, single point]

Some of the entries above in a different format.
Compound	AC50
CCC(=O)Nc1nn(C)c2nc3c(C)cccc3cc12	12.6 µM [rising, partial curve]
Cc1nc2c3cnn(-c4ccccc4)c3ncn2n1	12.6 µM [rising, single point]
Nc1nc2ccc([N+](=O)[O-])cc2s1	3.16 µM [falling, full curve, poor fit]

More entries.

Compound | AC50
COCCn1c(=O)c(-c2ccccc2)nc2cnc(Oc3ccc(OC)cc3)nc21 | 25.1 µM [rising, single point]
c1csc(CNc2ncncc2-c2ccc3c(c2)OCO3)c1 | 3.16 µM [rising, single point]
Cc1noc2nc(-c3cccs3)cc(-c3nnc4n3CCCCC4)c12 | 0.00316 µM [falling, full curve, poor fit]
CCCCC(=O)NCCNc1nc2c(c(=O)n(C)c(=O)n2C)n1Cc1ccccc1 | 5.01 µM [rising, partial curve]
COc1ccc(-c2nnc3ccc(SCC(=O)N4CCCCC4)nn23)cc1OC | 5.01 µM [rising, partial curve]
O=C(O)C1C2CCC(O2)C1C(=O)NCCC1=CCCCC1 (configuration not stated) | 1 µM [rising, full curve, poor fit]
Cc1noc(C)c1CSCC(=O)OCC(=O)Nc1sccc1C#N | 0.501 µM [falling, full curve]
Cn1c(=O)c2c(nc(Sc3nc4ccccc4n3CC(=O)N3CCCCC3)n2C)n(C)c1=O | 10 µM [rising, partial curve]
CCNc1ncc2nc(-c3ccc(OC)cc3)c(=O)n(Cc3cccc(OC)c3)c2n1 | 2.51 µM [rising, partial curve]
O=c1c(-c2ccccc2)nc2cnc(N3CCOCC3)nc2n1Cc1ccc(F)cc1 | 0.794 µM [rising, full curve]
Cc1onc(-c2c(F)cccc2Cl)c1C(=O)OCn1nnc2ccccc2c1=O | 1.26 µM [rising, partial curve]
CC(=O)Nc1cc2c(cc1C(C)=O)OCCO2 | 5.01 µM [falling, single point]
CCn1ncc(Br)c1C(=O)Nc1sc2c(c1C(=O)OC)CCC2 | 10 µM [rising, single point]
N#Cc1cccc(-c2nc(NCc3cccnc3)c3ccccc3n2)c1 | 10 µM [rising, partial curve]
COc1ccc(-n2c(=O)c(C)nc3cnc(Oc4cccc(Cl)c4)nc32)cc1 | 10 µM [rising, partial curve]
c1ccc(-c2ccc(-c3ccc(C4=NCCN4)cc3)o2)cc1 | 0.794 µM [rising, partial curve]
C=CCn1c(SCC(=O)Nc2ccc3c(c2)OCO3)nnc1-c1cc(Br)ccc1O | 25.1 µM [falling, single point]
Cc1ccc(Nc2nnc(SCc3cc(=O)n4ccsc4n3)s2)c(C)c1 | 10 µM [rising, single point]
Cc1cc(C)n2cc(CSc3nnnn3-c3ccccc3C)nc2n1 | 6.31 µM [rising, partial curve]
COC(=O)c1ccccc1NC(=O)c1cccs1 | 12.6 µM [rising, single point]
COC(=O)Nc1c(C)n(C)n(-c2ccccc2)c1=O | 0.0501 µM [rising, full curve]

Rewritten with tabs: part of the list above.
Compound	AC50
COCCn1c(=O)c(-c2ccccc2)nc2cnc(Oc3ccc(OC)cc3)nc21	25.1 µM [rising, single point]
c1csc(CNc2ncncc2-c2ccc3c(c2)OCO3)c1	3.16 µM [rising, single point]
Cc1noc2nc(-c3cccs3)cc(-c3nnc4n3CCCCC4)c12	0.00316 µM [falling, full curve, poor fit]
